Experimental data as given in patent US20200308281A1 (KITE PHARMA, published 2020).
Results are given in words; binding and its absence hold for the method and conditions named. Some results given as binding are weak or reduced against the parent protein; the word gives no strength.

Target: T1, peptide immunogen … (murine)
T1 sequence (peptide): ATYPSSDVPSDATLT
Test: ELISA, peptide coated on the plate at 1 ug/ml

B1: KIP-8 antibody (mAb clone 39; Clone 39-4) (antibody, V domains shown)
VH: QEQLVESGGGLVQPEGSLTLTCTASGFDLGNNWIHWVRHAPGKGLEWIACVSGSSGNIYYATWAKGRFTMSKASSTTVTLRMTSLTAADTATYFCARGWNLWGPGTLVTVSS
VL: AQVLTQTPASVSAAVGGTVTINCQASQSVYSSNLLTWYQKKPGQPPKLLIYEASKLPSGIPSRFSGSGSGTQFTLTISDVQCADAATYYCLGIYDCVLADCQAFGGGTEVVVKG
notes: Rabbit monoclonal antibody; also called clone 39 (KIP-8); Clone 39-4 vh1
  binding: binds
